# PubChem BioAssay AID651768 (National Center for Advancing Translational Sciences (NCATS), 2012)
# Chains of the proteins cited; added tags and fusions are not shown.
# UniProt Q14191, whole entry, looked up: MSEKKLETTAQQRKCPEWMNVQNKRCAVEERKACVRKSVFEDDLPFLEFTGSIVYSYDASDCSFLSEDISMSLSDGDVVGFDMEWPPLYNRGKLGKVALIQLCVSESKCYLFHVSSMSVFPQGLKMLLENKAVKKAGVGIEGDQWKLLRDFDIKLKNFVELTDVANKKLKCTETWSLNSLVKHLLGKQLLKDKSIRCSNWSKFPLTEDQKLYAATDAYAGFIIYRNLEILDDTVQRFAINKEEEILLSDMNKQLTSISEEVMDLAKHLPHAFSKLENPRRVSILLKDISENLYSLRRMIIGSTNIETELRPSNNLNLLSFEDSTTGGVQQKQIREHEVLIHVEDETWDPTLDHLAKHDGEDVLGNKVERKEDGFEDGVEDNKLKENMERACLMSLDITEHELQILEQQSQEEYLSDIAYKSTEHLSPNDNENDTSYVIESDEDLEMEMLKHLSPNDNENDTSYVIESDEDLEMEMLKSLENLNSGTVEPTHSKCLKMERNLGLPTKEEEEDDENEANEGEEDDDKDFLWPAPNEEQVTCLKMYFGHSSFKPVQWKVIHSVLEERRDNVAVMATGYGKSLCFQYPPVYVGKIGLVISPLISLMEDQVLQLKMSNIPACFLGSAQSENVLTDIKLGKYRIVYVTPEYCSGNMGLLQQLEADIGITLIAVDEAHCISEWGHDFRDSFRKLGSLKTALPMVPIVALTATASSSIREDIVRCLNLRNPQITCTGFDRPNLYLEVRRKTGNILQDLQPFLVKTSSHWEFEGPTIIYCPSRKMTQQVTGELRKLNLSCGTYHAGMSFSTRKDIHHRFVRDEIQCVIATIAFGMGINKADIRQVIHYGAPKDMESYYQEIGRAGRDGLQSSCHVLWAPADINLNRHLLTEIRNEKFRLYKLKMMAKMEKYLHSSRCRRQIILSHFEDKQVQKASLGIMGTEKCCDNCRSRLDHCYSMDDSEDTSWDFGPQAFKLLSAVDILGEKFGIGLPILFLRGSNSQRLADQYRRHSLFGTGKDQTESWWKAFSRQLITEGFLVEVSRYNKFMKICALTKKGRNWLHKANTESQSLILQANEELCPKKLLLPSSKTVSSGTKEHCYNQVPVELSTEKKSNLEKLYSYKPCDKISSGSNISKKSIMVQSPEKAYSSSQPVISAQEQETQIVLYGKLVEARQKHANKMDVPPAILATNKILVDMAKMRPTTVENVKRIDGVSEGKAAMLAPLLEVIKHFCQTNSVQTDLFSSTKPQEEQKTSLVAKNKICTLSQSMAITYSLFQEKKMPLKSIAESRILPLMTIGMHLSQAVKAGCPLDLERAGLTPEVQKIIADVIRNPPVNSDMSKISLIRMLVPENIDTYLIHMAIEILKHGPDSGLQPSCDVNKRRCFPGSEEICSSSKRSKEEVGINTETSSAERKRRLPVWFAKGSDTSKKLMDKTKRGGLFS
# Screen size: about 360,000 compounds; about 1,700 (0.47%) were called active. Inconclusive means that the source gave no clear call. Such entries were picked first, then a sample of the others. Calls follow the shape of the dose curve; as a rule, active = well fitted inhibition curve with a large enough effect; inconclusive = small, poorly fitted or top-dose-only effect; inactive = no such curve, though single readings can be large or run the other way. A potency beside an inconclusive call is a rough fit, not a confirmed value.
# Target: Bifunctional 3'-5' exonuclease/ATP-dependent helicase WRN (Homo sapiens) (UniProt Q14191)
# Assay: qHTS for Inhibitors of WRN Helicase; also: nearly all actives have a fitted effect of over 55% in size
# Details: WRN helicase unwinding, fluorescent forked duplex, kinetic; activity change, negative = inhibition: at 114 µM (top of the series) unless noted
# How it was run: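 WRN at 20 nM final preincubated with compound 15 min at room temperature; reaction started with 100 nM fluorophore/quencher forked duplex oligonucleotide and 2 mM ATP final. Unwinding followed kinetically by red fluorescence (ex 525, em 598 nm).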
# % is scaled to controls: 0 for no effect and ±100 for the full control effect; potency is read from the fitted curve at half-maximal effect.
Compound,"activity change, negative = inhibition",Potency
C#CCOCCOCCOCCNc1nc(N2CCN(C(=O)CCCCCCCCCCNC(=O)[C@H](CCCCN)n3cc(CCO)nn3)CC2)nc(N2CCN(C(=O)CCCCCCCCCCNC(=O)[C@H](CCCCN)n3cc(CCCC(=O)O)nn3)CC2)n1,inactive: 20.8%,–
O=C(CSc1ncn(-c2ccccc2)n1)Nc1nccs1,–,"inconclusive: 56.2 µM [inhibitor, partial curve]"
O=c1c2ccccc2sc2ccc(NCCCN3CCOCC3)cc12,inactive: -17%,–
Cc1c(CBr)[n+](=O)c2c(n1[O-])C(Br)CCC2Br (centres undefined),–,"inconclusive: 35.5 µM [inhibitor, full curve]"
O=C(O)c1ccccc1NS(=O)(=O)c1ccc(NN=Cc2ccc(F)cc2)c([N+](=O)[O-])c1,–,"inconclusive: 50.1 µM [inhibitor, partial curve]"
Nc1nc2ccccc2n1C(=O)c1ccc(F)cc1,–,"inconclusive: 39.8 µM [inhibitor, single point]"
CCOC(=O)c1cc2c(=O)n3ccccc3nc2n(Cc2ccco2)c1=NC(=O)c1ccccc1OC,–,"inconclusive: 79.4 µM [inhibitor, partial curve]"
CCC(=O)NC(c1cccc([N+](=O)[O-])c1)c1c(O)ccc2ccccc12 (centres undefined),inactive: -7.83%,–
Cc1ccc(C)c(SCC(=O)OCC(=O)c2ccco2)c1,–,"inconclusive: 23.8 µM [inhibitor, partial curve]"
Cc1ccc(-c2cc(-c3ccc(C)o3)nc(N)c2C#N)cc1,–,"inconclusive: 13.4 µM [inhibitor, partial curve]"
O=C(O)CN1C(=O)/C(=C\c2cc(Br)ccc2OCc2ccccc2F)SC1=S,inactive: 1.73% [at 11.6 µM],–
O=C(c1ccc(Cl)cc1Cl)N1CCSCC1,–,"inconclusive: 3.55 µM [inhibitor, full curve, poor fit]"
O=C(O)CSc1nnc(Nc2ccccc2)n1-c1ccccc1,inactive: -1.53%,–
COC(=O)Nc1nc2ccc(-c3n[nH]c(=O)c4ccccc34)cc2[nH]1,–,"inconclusive: 50.1 µM [inhibitor, partial curve]"
COc1ccc(NC(=O)c2cc(-c3ccc(C)o3)nc3ccccc23)cc1,–,"inconclusive: 6.31 µM [inhibitor, full curve, poor fit]"
Nc1ccc(Nc2ccccc2)c(S(=O)(=O)O)c1,–,"inconclusive: 20 µM [inhibitor, full curve]"
CN1CCc2nc(SCC(=O)Nc3ccc(OC(F)(F)F)cc3)c(C#N)c(-c3cccs3)c2C1,–,"inconclusive: 35.5 µM [inhibitor, partial curve]"
COc1ccc(Cl)cc1NC(=O)CSc1nc(C)cc(C)n1,inactive: -3.16%,–
O=C(CCS(=O)(=O)c1ccc(Cl)cc1)N1CCCc2ccccc21,–,"inconclusive: 31.6 µM [inhibitor, full curve]"
O=C(Cc1cccs1)Nc1ccc(S(=O)(=O)N2CCCCC2)cc1,–,"inconclusive: 56.2 µM [inhibitor, partial curve]"
O=C(C[C@@H]1C/C=C\C[C@H](NC(=O)OCC2c3ccccc3-c3ccccc32)C(=O)OC[C@@H]2CCCN2C1=O)NCCO,inactive: -27.7%,–
COc1cc(/C=C2/S/C(=N/S(=O)(=O)Cc3ccccc3)NC2=O)c([N+](=O)[O-])cc1OC,–,"inconclusive: 44.7 µM [inhibitor, partial curve]"

Compound,"activity change, negative = inhibition",Potency
COc1ccc(-c2cc(C(F)(F)F)n3nc(N)nc3n2)cc1,inactive: -8.53%,–
Cc1cccc2cc3c(nc12)SC(=NCC1CCCO1)N(Cc1ccco1)C3 (centres undefined),–,"inconclusive: 56.2 µM [inhibitor, partial curve]"
Cc1sc2c3ccsc3ccc2[n+]1C,–,"inconclusive: 44.7 µM [inhibitor, partial curve]"
O=C(/C=C/Sc1ncn[nH]1)c1ccc(Cl)cc1,–,active: 35.5 µM
COc1ccc2c(c1)-c1nc(/N=C/c3ccc(O)c(OC)c3)sc1CC2,–,active: 79.4 µM
Cc1cccc(-c2nnc(SCCC(=O)N3CCOCC3)o2)c1,–,"inconclusive: 12.6 µM [inhibitor, single point]"
O=c1c2sccc2nc(SCc2cc(=O)n3ccccc3n2)n1-c1ccc(Br)cc1,–,"inconclusive: 28.2 µM [inhibitor, single point]"
CCOc1cc(C(c2c(C)[nH][nH]c2=O)c2c(C)[nH][nH]c2=O)cc(Cl)c1O,inactive: -5.83%,–
Cc1ccc(S(=O)(=O)c2nc(-c3ccco3)oc2N2CCC(C)CC2)cc1,–,"inconclusive: 39.8 µM [inhibitor, single point]"
CC(=O)c1c(C)oc(C)c1CSCc1ccc(C(=O)O)o1,–,"inconclusive: 23.8 µM [inhibitor, partial curve]"
COc1cc(C(=O)NNC(=O)Cc2ccc(S(=O)(=O)N3CCOCC3)s2)cc(OC)c1OC,–,"inconclusive: 50.1 µM [inhibitor, partial curve]"
O=C(Nc1cnn(Cc2ccc(Cl)c(Cl)c2)c1)c1nc2ncccn2n1,inactive: 3.79%,–
CCCn1c(/C=C/c2ccco2)nc2ccccc21,inactive: -15.4% [at 57.1 µM],–
NNc1cccc(C=Cc2ccccc2)cc1=O,–,"inconclusive: 6.31 µM [inhibitor, full curve, poor fit]"
COC(=O)c1ccc(NCc2c(O)ccc(O)c2Br)cc1Cl,–,active: 50.1 µM
COc1ccccc1C(=O)NC(=O)CSc1nnc(N)s1,inactive: -13.5% [at 11.6 µM],–
O=C(CSc1nnc(-c2ccncc2)n1Cc1ccco1)Nc1ccccc1Cl,inactive: -4.46%,–
COc1ccc(NS(=O)(=O)c2cccc(C(=O)NNC(=O)c3cccn3C)c2)cc1,–,"inconclusive: 56.2 µM [inhibitor, partial curve]"
Cc1ccc(S(=O)(=O)NNC(=O)C2CCN(S(=O)(=O)c3ccc(C)cc3)CC2)cc1,inactive: 1.37%,–
O=C(O)COc1ccc2c(c1)O/C(=C\c1ccco1)C2=O,–,"inconclusive: 28.2 µM [inhibitor, single point]"
CC(C)NC(=O)/C(C#N)=C\c1ccc(N(C)C)c(Br)c1,–,"inconclusive: 39.8 µM [inhibitor, single point]"
Cc1cc(C)c(C)c(S(=O)(=O)Nc2ccc(C(=O)N3CCCC3)cc2)c1C,–,"inconclusive: 79.4 µM [inhibitor, single point]"

# Grouped by structure, the compounds so far with fluorine
Compound,"activity change, negative = inhibition",Potency
O=C(O)c1ccccc1NS(=O)(=O)c1ccc(NN=Cc2ccc(F)cc2)c([N+](=O)[O-])c1,–,"inconclusive: 50.1 µM [inhibitor, partial curve]"
Nc1nc2ccccc2n1C(=O)c1ccc(F)cc1,–,"inconclusive: 39.8 µM [inhibitor, single point]"
O=C(O)CN1C(=O)/C(=C\c2cc(Br)ccc2OCc2ccccc2F)SC1=S,inactive: 1.73% [at 11.6 µM],–
CN1CCc2nc(SCC(=O)Nc3ccc(OC(F)(F)F)cc3)c(C#N)c(-c3cccs3)c2C1,–,"inconclusive: 35.5 µM [inhibitor, partial curve]"
COc1ccc(-c2cc(C(F)(F)F)n3nc(N)nc3n2)cc1,inactive: -8.53%,–
